Source: PubChem BioAssay AID540256 (National Center for Advancing Translational Sciences (NCATS), 2011)
Hit rate of the full screen: of about 300,000 compounds, about 3,700 (1.2%) were called active. Inconclusive results, whose numbers are uncertain, are shown with a selection of clear calls. Calls follow the shape of the full dose curve; tested in HEK293 cells. A potency beside an inconclusive call is a rough fit, not a confirmed value.

assay: qHTS for Inhibitors of binding or entry into cells for Lassa Virus; conditions: Lassa virus pseudotype entry inhibition, cell reporter; activity change, negative = inhibition: at 37.9 µM (top of the series) unless noted; also: nearly all actives have a fitted effect of over 50% in size
% is scaled to controls: 0 for no effect and ±100 for the full control effect; potency is read from the fitted curve at half-maximal effect.

Compound | activity change, negative = inhibition | Potency
CCN(C(=O)c1cc(S(=O)(=O)N2CCCCC2)c[nH]1)c1ccc(OC)cc1 | inactive: 7.53% [at 46.1 µM] | 
O=c1sc2ccccc2n1COc1ccc(Cl)cc1 | inactive: 4.73% | 
COc1ccc(CNC(=O)CN(Cc2ccccc2F)C(=O)c2csnn2)cc1 |  | inconclusive: 17.8 µM [inhibitor, partial curve, poor fit]
S=C(Nc1cccc(Cl)c1)Nc1ccccc1Oc1ccccc1 |  | inconclusive: 35.5 µM [inhibitor, single point]
Cc1cccc(OCC(=O)N/N=C/c2cn[nH]c2-c2ccc(Cl)c(Cl)c2)c1 |  | inconclusive: 12.6 µM [inhibitor, partial curve, poor fit]
CCCCN(CCCC)S(=O)(=O)c1ccc(NC(=O)c2c(-c3ccccc3)noc2C)cc1 | inactive: -21.6% [at 46.1 µM] | 
CCOC(=O)C(=CNc1ccc(N2CCCCC2)c(S(=O)(=O)Nc2ccccc2OC)c1)C(=O)OCC | inactive: -4.45% | 
COc1ccc(CNC(=O)c2cnn(-c3ccc(C)cc3)c2C2CCN(C(=O)OC(C)(C)C)CC2)cc1 |  | inconclusive: 0.891 µM [inhibitor, full curve, poor fit]
CC(=O)N1CCN(c2ccc(N=Cc3c(O)n(Cc4ccccc4)c(=O)[nH]c3=O)cc2)CC1 | inactive: -20.1% | 
CCOC(=O)C1(C(C)(C)CC)CC(CSc2nc3ccccc3[nH]2)OC1=O (configuration not stated) |  | inconclusive: 16.4 µM [inhibitor, single point]
CCOc1ccccc1C(=O)N1CCc2cc(OC)c(OC)cc2C1COc1ccc2c(C)cc(=O)oc2c1 (configuration not stated) | inactive: -4.78% [at 46.1 µM] | 
COc1cccc(NC(=O)CSc2nnc(Cn3cnc([N+](=O)[O-])n3)n2C)c1 |  | inconclusive: 20 µM [activator, single point]
Cn1cc(Cl)c(-c2n[nH]c(=S)n2-c2ccccc2)n1 | inactive: 4.44% | 
Cn1nc(C(=O)Nc2ccc(S(=O)(=O)N3CCCC3)cc2)ccc1=O |  | inconclusive: 2.59 µM [activator, partial curve]
O=C(NCCCN1CCOCC1)c1cc(-c2ccccc2)on1 |  | inconclusive: 16.4 µM [activator, partial curve, poor fit]
Cc1ccc(NC(=O)Cn2ccn(Cc3ccc(Cl)cc3)c(=O)c2=O)cc1C | inactive: 15.9% [at 46.1 µM] | 
O=C(Nc1ccc(Cn2cccn2)cc1)c1ccc(COc2cccc(Br)c2)cc1 |  | active: 5.62 µM
COc1cc(/C=C2\C(=O)NC(=O)N(c3ccccc3)C2=O)cc(OC)c1O | inactive: 8.11% | 
Cc1cc(C)cc(N(CC(=O)NCc2ccc3c(c2)OCO3)C(=O)CCC(=O)Nc2ccccn2)c1 |  | active: 10 µM
CCN(CCCNC(=O)C1CCC(=O)N1Cc1ccccc1Cl)c1cccc(C)c1 (configuration not stated) |  | inconclusive: 20 µM [inhibitor, single point]
Cc1ccsc1/C=C/c1ccc2ccccc2n1 |  | active: 12.6 µM
CCN(CC)c1ccc2c(c1)OC(N)=C(C#N)C2c1cccnc1 (configuration not stated) |  | inconclusive: 0.224 µM [inhibitor, full curve, poor fit]
CC(C)(C)c1ccc(C(=O)NC(=S)Nc2nc3c(s2)CCCC3)cc1 |  | inconclusive: 5.62 µM [inhibitor, full curve, poor fit]
O=C(CCNc1ccccc1)c1cccc([N+](=O)[O-])c1 | inactive: -0.126% | 

Three of the compounds above, as labelled records:
Cc1cccc(OCC(=O)N/N=C/c2cn[nH]c2-c2ccc(Cl)c(Cl)c2)c1
  Potency: inconclusive: 12.6 µM [inhibitor, partial curve, poor fit]
CCCCN(CCCC)S(=O)(=O)c1ccc(NC(=O)c2c(-c3ccccc3)noc2C)cc1
  activity change, negative = inhibition: inactive: -21.6% [at 46.1 µM]
CCOC(=O)C(=CNc1ccc(N2CCCCC2)c(S(=O)(=O)Nc2ccccc2OC)c1)C(=O)OCC
  activity change, negative = inhibition: inactive: -4.45%

Going on with the list.

Compound | activity change, negative = inhibition | Potency
Cc1ncc(CO)c(/C=N/NC(=S)Nc2ccc(F)cc2)c1O |  | inconclusive: 12.6 µM [inhibitor, single point]
N=c1n(CCO)c2ccccc2n1CCOc1ccc(F)cc1 | inactive: 19.7% [at 46.1 µM] | 
Cc1cccc(C)c1NC(=O)C1CCN(S(=O)(=O)c2cccc3nsnc23)CC1 |  | inconclusive: 3.98 µM [activator, single point]
CCCCn1c(N)c(N(CC)C(=O)c2ccc([N+](=O)[O-])c(C)c2)c(=O)[nH]c1=O | inactive: 0.291% | 
Cc1ccc(C)c(Cn2cc(CCC(=O)NC3CCCCC3)c3ccccc32)c1 | inactive: 0.413% [at 46.1 µM] | 
CCN(CC)CCNc1ncnc2c1sc1nc(N3CCOCC3)c3c(c12)CCCC3 |  | inconclusive: 8.91 µM [inhibitor, partial curve, poor fit]
CC(C)NC(=O)c1ccc(COCC(F)(F)F)cc1 | inactive: 2.82% | 
COc1cc(C2c3[nH]c4ccccc4c3CCN2Cc2cn(C)nc2C)ccc1F (configuration not stated) |  | inconclusive: 17.8 µM [inhibitor, single point]
COc1cc(Cl)c(C)cc1NC(=O)CSCc1nc(-c2ccc(OC)c(OC)c2)no1 | inactive: -14.5% [at 46.1 µM] | 
COCCN1C=C(C(=O)OC)C(c2cc(Br)c(OC)c(OC)c2)C(C(=O)OC)=C1 |  | active: 11.2 µM
Cc1ccccc1NS(=O)(=O)c1cc(C(=O)Nc2cccc([N+](=O)[O-])c2)ccc1C |  | active: 11.2 µM
CC(/C=N/Nc1nncc(=O)[nH]1)=C\c1ccccc1 |  | inconclusive: 28.2 µM [activator, single point]
Cc1csc(=O)n1CCC(=O)OCC(=O)NNC(=O)c1ccc(Cl)cc1 | inactive: 15.7% | 
C=Cc1ccc2c(c1)N(C)C(=C)S2 |  | inconclusive: 6.31 µM [inhibitor, single point]
Cn1c(NCc2ccccc2F)nc2ccccc21 |  | inconclusive: 2.51 µM [activator, full curve, poor fit]
CCOc1cc(/C=C2/C(=O)NC(=O)N(c3ccc(CC)cc3)C2=O)ccc1OC(=O)c1cccs1 | inactive: 21.6% | 
COCCn1c(SCC(=O)c2cccc(OC)c2)nnc1-c1ccco1 | inactive: 4.58% | 
C/C(=C\C(=S)Nc1ccccc1)Nc1cccc2ccccc12 | inactive: -16.5% | 
COc1ccc(CC(=O)N/N=C/c2ccc(-c3ccc(F)cc3)o2)cc1OC |  | inconclusive: 20 µM [inhibitor, partial curve, poor fit]
COc1ccc(CCNc2nc(=O)[nH]nc2C)cc1OC |  | inconclusive: 6.51 µM [inhibitor, single point]
COc1ccc(-c2[nH]ncc2CN(C)CCCN2CCOCC2)cc1F | inactive: 3.34% [at 46.1 µM] | 
CN(C(=O)CSc1nc2ccccc2c(=O)n1-c1ccc(F)cc1F)C1CCS(=O)(=O)C1 (configuration not stated) |  | inconclusive: 1.26 µM [inhibitor, single point]
COc1ccc(-c2csc(C3=C(O)CN(C(C)C)C3=N)n2)cc1OC |  | inconclusive: 7.94 µM [inhibitor, partial curve, poor fit]
